For at least one entry, the source does not settle the construct or the ends of the probe. Tags and fusion partners may be left off the protein sequences shown.
Target: T1, Ty1 integrase (in Ty1 virus-like particles) (Saccharomyces cerevisiae) (UniProt Q07163)
T1 sequence (looked up, limits assumed): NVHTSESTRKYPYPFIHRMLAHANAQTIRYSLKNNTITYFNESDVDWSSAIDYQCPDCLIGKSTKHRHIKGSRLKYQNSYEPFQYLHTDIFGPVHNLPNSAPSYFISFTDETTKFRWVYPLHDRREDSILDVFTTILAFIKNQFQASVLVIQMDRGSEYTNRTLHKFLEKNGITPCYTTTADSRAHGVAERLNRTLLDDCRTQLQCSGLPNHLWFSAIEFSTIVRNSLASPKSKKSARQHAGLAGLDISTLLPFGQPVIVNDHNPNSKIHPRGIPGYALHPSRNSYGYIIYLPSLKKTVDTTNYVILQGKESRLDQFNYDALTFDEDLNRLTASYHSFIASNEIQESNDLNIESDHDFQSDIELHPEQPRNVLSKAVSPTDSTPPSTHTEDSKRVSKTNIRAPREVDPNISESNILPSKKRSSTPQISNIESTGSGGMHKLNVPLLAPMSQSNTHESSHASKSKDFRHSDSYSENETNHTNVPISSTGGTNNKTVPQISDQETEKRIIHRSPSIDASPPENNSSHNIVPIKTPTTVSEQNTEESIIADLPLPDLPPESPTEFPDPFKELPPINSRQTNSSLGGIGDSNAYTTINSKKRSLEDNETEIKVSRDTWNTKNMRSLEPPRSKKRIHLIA
Test: activity assay
Settings: in vitro integration into plasmid p76-2; 15 mM MgCl2, 10 mM Tris pH 7.5, 10 mM KCl, 1 mM DTT, 5% PEG 8000, 30 C then 37 C; 9.1e-7 with 25 mM EDTA

Sequence “TGTTCACCGCGGTGGCGGCCGCTCTAGAACTAGTGGATCCTGCAAGCAGGATAGACGGCATGCACGATTTGTAATAACAGAGTGTCTTGTATTTTTAAAGAAAGTCTATTTAATACAAGTGATTATATTAATTAACGGTAAGCATCAGCGGGTGACAAAACGAGCATGCTTACTAATAAAATGTTAACCTCTGAGGAAGAATTGTGAAACTATCACTAATGGTAGCTATATCGAAGAATGGAGTTATCGGGAATGGCCCTGATATTCCATGGAGTGCCAAAGGTGAACAGCTCCTGTTTAAAGCTATTACCTATAACCAATGGCTGTTGGTTGGACGCAAGACTTTTGAATCAATGGGAGCATTACCCAACCGAAAGTATGCGGTCGTAACACGTTCAAGTTTTACATCTGACAATGAGAACGTATTGATCTTTCCATCAATTAAAGATGCTTTAACCAACCTAAAGAAAATAACGGATCATGTCATTGTTTCAGGTGGTGGGGAGATATACAAAAGCCTGATCGATCAAGTAGATACACTACATATATCTACAATAGACATCGAGCCGGAAGGTGATGTTTACTTTCCTGAAATCCCCAGCAATTTTAGGCCAGTTTTTACCCAAGACTTCGCCTCTAACATAAATTATAGTTACCAAATCTGGCAAAAGGGTTAACAAGTGGCAGCAACGGATTCGCAAACCTGTCACGCCTTTTGTGCCAAAAGCCGCGCCAGGTTTGCGATCCGCTGTGCCAGGCGTTAGGCGTCATATGAAGATTTCGGTGATCCCTGAGCAGGTGGCGGAAACATTGGATGCTGAGAATTCGATATCAAGCTTATCGATACCGTCGACCTCGAGAACA (double strand) [AT-2 artificial transposon (PART)]” has an activity on this sequence (insertions per target transformant) of 4.2e-05.

Source: US5728551
